No constants are given. Whether binding was seen depends on the method and setting. In cells and extracts the contact can be indirect.
Target: T1, Rabaptin5 (endogenous) (human (endogenous in HeLa and HEK293A)) (UniProt Q15276)
T1 sequence: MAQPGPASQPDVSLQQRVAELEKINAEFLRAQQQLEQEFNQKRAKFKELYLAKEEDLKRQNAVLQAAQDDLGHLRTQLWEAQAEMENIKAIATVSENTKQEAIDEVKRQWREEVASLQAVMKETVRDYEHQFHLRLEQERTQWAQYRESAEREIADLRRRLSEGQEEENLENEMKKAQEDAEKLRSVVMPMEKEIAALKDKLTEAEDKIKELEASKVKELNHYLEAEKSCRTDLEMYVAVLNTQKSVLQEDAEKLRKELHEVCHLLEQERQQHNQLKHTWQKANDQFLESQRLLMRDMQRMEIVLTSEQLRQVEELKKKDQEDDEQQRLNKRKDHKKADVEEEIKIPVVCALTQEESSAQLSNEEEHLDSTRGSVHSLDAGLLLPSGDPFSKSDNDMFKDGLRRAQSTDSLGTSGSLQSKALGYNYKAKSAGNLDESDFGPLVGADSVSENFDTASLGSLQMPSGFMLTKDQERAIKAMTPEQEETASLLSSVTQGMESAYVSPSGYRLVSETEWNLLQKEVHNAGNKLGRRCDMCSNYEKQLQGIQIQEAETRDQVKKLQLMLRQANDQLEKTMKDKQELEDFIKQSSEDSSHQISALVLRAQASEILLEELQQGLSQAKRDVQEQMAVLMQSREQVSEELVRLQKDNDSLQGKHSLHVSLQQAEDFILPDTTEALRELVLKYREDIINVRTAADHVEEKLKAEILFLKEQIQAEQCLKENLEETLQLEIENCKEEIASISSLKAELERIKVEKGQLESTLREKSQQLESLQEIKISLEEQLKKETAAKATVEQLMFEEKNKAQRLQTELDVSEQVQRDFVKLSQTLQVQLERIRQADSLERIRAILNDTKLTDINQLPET
Experiment: co-IP

binding: no binding
Substance: mCherry-ATG16L1 lacking the WD domain (domain or fragment)
